# Reference: the supplement of paper PMC10981050
# “And” between values parts separate entries of the source, which are not always exact repeats. Identical values can stand only once. Most of the strong results are listed elsewhere, so they are rarer here than in the full data.
# Legend:
# Experiment in all cases: cell viability relative to vehicle control; higher = less cytotoxic
# Conditions in all cases: 10 µM
# K562 = test system: K562
# Method in brief: (§1)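 CRISPR-edited mutant clones and isogenic wild-type clones from four leukaemia lines were screened against Selleck bioactive, kinase and epigenetic probe libraries, with identity-inconsistent compounds excluded. Each compound was acoustically dispensed at a single 10 µM dose into 384-well plates holding 2000 cells in 50 µL medium per well. After 48 h the supernatant was removed and CellTiter-Glo luminescence was read. Viability was expressed as percent of the on-plate vehicle control and analysed in Genedata Screener.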
# MARIMO = test system: MARIMO
# Method in brief: as §1
# MOLM14 = test system: MOLM14
# Method in brief: as §1
# OCI-AML2 = test system: OCI-AML2
# Method in brief: as §1
compound,measurement,setting,value
Cc1c(C(=O)NN2CCCCC2)nn(-c2ccc(Cl)cc2Cl)c1-c1ccc(I)cc1,cell viability,K562; SRSF2 genotype: SRSF2 P95H/wt,81.2% and 81.6%
same,cell viability,K562; SRSF2 genotype: SRSF2 wt/wt,74.8%
same,cell viability,MARIMO; SRSF2 genotype: SRSF2 P95H/wt,85.6%
same,cell viability,MARIMO; SRSF2 genotype: SRSF2 wt/wt,95.8%
same,cell viability,MOLM14; SRSF2 genotype: SRSF2 P95H/wt,75.9%
same,cell viability,MOLM14; SRSF2 genotype: SRSF2 wt/wt,83.5%
same,cell viability,OCI-AML2; SRSF2 genotype: P95H/wt,71%
same,cell viability,OCI-AML2; SRSF2 genotype: wt/wt,82.1%
